Measured values published in PubChem BioAssay AID2685 (National Center for Advancing Translational Sciences (NCATS), 2010).
Screen size: about 320,000 compounds; about 2,100 (0.66%) were called active. Inconclusive means that the source gave no clear call. Such entries were picked first, then a sample of the others. Calls come from the whole dose curve; as a rule, active = well fitted inhibition curve with a large enough effect in the signal ratio, with a control signal flat (not every such curve was filed as active); inconclusive = small, poorly fitted or top-dose-only effect, or effect the other way, or a change in a side signal; inactive = flat fitted curve, though single readings scatter; the % refers to the signal ratio. A potency beside an inconclusive call is a rough fit, not a confirmed value.
% is set by controls: 0 for no effect and ±100 for the full control effect; potency is the fitted concentration of half-maximal effect.

Experiment: qHTS Assay for Lipid Storage Modulators in Drosophila S3 Cells
Settings: BODIPY lipid droplet fluorescence, 18-24 h, cells fed with added oleic acid; lipid storage change, negative = inhibition: at 46.1 µM (top of the series) unless noted
Outline: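 Laser-scanning cytometry quantifies lipid droplet accumulation (500–530 nm total intensity; droplet/cell object ratio) in oleic acid-fed (400 uM added) Drosophila S3 cells treated with a concentration series. 20 uM Triacsin C defined 100% inhibition.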
For `COc1ccc(CC(=O)OC(C)CN2CCCCC2)cc1` (configuration not stated), the lipid storage change, negative = inhibition was inconclusive: -22.5%.
With `C=CCN(Cc1ccc(Cl)s1)C(=O)CNC(=O)CNC(=O)c1ccc(Cl)cc1Cl` the lipid storage change, negative = inhibition was inconclusive: 17.3%.
In the case of `Cn1cccc1/C=N\NC(=O)C1COc2ccccc2O1` (configuration not stated), the lipid storage change, negative = inhibition is reported as inconclusive: 338%.
In the case of `CCOC(=O)c1cc(OCC(=O)NC(C)C(C)C)cc(C(=O)OCC)c1` (configuration not stated), the Potency is reported as inconclusive: 0.58 µM [activator, full curve, poor fit].
For `CCN(C(=O)Cc1c(C(=O)O)n(C)c2ccccc12)c1cccc(C)c1`, the lipid storage change, negative = inhibition was inconclusive: 98.6%.
With `COC(=O)[C@@H](Cc1c[nH]c2ccccc12)NC(=O)CNC(=O)c1ccccc1OC` the lipid storage change, negative = inhibition was inconclusive: -46.7%.
In the case of `NS(=O)(=O)c1ccc(-c2cccc(/C=C3\SC(=O)NC3=O)c2)cc1`, the lipid storage change, negative = inhibition is reported as inconclusive: 3.73%.
For `CC(=O)c1ccc(-n2c(C)ccc2-c2ccccc2)cc1`, the Potency was inconclusive: 6.51 µM [falling, single point].
In the case of `O=C(CCCN1C(=O)[C@H]2CC=CC[C@H]2C1=O)NCc1nc(-c2ccccc2)no1`, the lipid storage change, negative = inhibition is reported as inconclusive: 115%.
With `Cc1ccc(O)c(NC(=O)c2cccc(S(=O)(=O)N3CCCCC3)c2)c1` the lipid storage change, negative = inhibition was inconclusive: -29.5%.
In the case of `CCN1CCN(S(=O)(=O)c2ccc(Cl)c(C(=O)NC3CCCCC3)c2)CC1`, the Potency is reported as inconclusive: 5.8 µM [activator, single point].
For `O=C(OCc1cc2ccccc2[nH]c1=O)C1CCCCC1`, the Potency was inconclusive: 1.64 µM [falling, full curve].
For `Cc1cc(C)cc(C(=O)NCC(=O)OCC(=O)N2c3ccccc3NC(=O)C2(C)C)c1`, the lipid storage change, negative = inhibition was inconclusive: 3.39%.
For `CC1Cc2ccccc2N1C(=O)CO/N=C/c1ccc(OC(F)F)cc1` (configuration not stated), the lipid storage change, negative = inhibition was inconclusive: 30.6%.
For `CC(=O)N1CCN(c2ccc(Oc3ccc([N+](=O)[O-])c(C(F)(F)F)c3)cc2)CC1`, the lipid storage change, negative = inhibition was inconclusive: -84.5%.
For `Cc1ccccc1NC(=O)c1cccc(N2C(=O)C3C4CCC(C4)C3C2=O)c1` (configuration not stated), the Potency was inconclusive: 0.206 µM [activator, partial curve].
With `Clc1ccc(-n2ncc3c(NCc4ccc5c(c4)OCO5)ncnc32)cc1` the lipid storage change, negative = inhibition was inconclusive: 201%.
For `Cc1ccc(C(=O)COC(=O)C2CC(=O)N(c3nc(-c4ccccc4)cs3)C2)cc1` (configuration not stated), the lipid storage change, negative = inhibition was inconclusive: -14.1%.
With `Fc1ccc(CN2CCSCC2)cc1Br` the lipid storage change, negative = inhibition was inconclusive: -37.1%.
With `CCOC(=O)C(C)Sc1nc2c(c(=O)[nH]c(=O)n2C)n1CCc1ccccc1` (configuration not stated) the lipid storage change, negative = inhibition was inconclusive: -13.2% [at 9.22 µM].
In the case of `O=S(=O)([O-])CCC[n+]1c(/C=C\Nc2ccccc2)oc2ccc(-c3ccccc3)cc21`, the Potency is reported as inconclusive: 16.4 µM [falling, partial curve].
In the case of `Cc1ccccc1C(=O)NC1CC2CCCC(C1)N2Cc1ccccc1` (configuration not stated), the Potency is reported as inconclusive: 6.51 µM [activator, single point].
With `CCN(CC)CCNC(=O)c1ccc(NC(=O)c2ccc(COc3ccccc3)cc2)cc1` the Potency was inconclusive: 29.1 µM [falling, single point].
With `CN1CCN(C2=Nc3c(Cl)cc(Cl)c4cccc2c34)CC1` the lipid storage change, negative = inhibition was inconclusive: -30.7%.
With `CNC1(C(N)=O)CCNCC1` the lipid storage change, negative = inhibition was inconclusive: -21.5%.
In the case of `CN=C(Nc1cc(C)nn1CCC#N)c1ccccc1`, the lipid storage change, negative = inhibition is reported as inconclusive: -3.63%.
With `Cc1cccc(SC2CCN(C(=O)C3CCC(=O)N(C4CC4)C3)CC2)c1` (configuration not stated) the Potency was inconclusive: 1.3 µM [falling, full curve].
With `CCCCc1ccc(NC(=O)NCc2cccnc2)cc1` the lipid storage change, negative = inhibition was inconclusive: 20.2%.
In the case of `Cc1cc(C)cc(NC(=O)CN2CCN(c3ncccn3)CC2)c1`, the lipid storage change, negative = inhibition is reported as “inactive”.
For `O=C(CNC(=O)c1sc2ccccc2c1Cl)NCc1cccnc1`, the Potency was inconclusive: 29.1 µM [falling, single point].
In the case of `COc1ccc(OCC(=O)OCC(=O)Nc2ccc(S(=O)(=O)N3CCCCC3)cc2)cc1`, the Potency is reported as inconclusive: 3.26 µM [falling, full curve].
In the case of `O=C(c1cccnc1Cl)N(Cc1ccccc1)Cc1ccccc1`, the lipid storage change, negative = inhibition is reported as “inactive”.
For `O=C(NC(=S)NCc1ccccc1)c1ccccc1Br`, the lipid storage change, negative = inhibition was inconclusive: 19%.
In the case of `O=C(NC(C(=O)c1ccccc1)N1CCCCC1)c1ccccc1` (configuration not stated), the Potency is reported as inconclusive: 29.1 µM [activator, single point].
In the case of `O=C(COC(=O)CNC(=O)c1cccc(Br)c1)Nc1nnc(-c2ccccc2)o1`, the Potency is reported as inconclusive: 20.6 µM [activator, single point].
In the case of `Cc1c(-c2cc(Br)ccc2O)nc2cc3c(cc2c1C)OCO3`, the lipid storage change, negative = inhibition is reported as inconclusive: 5.92%.
For `COc1cccc(NC(=O)CN(C)C(=O)c2cc(-c3cccc(Br)c3)nc3ccccc23)c1`, the lipid storage change, negative = inhibition was inconclusive: 4.47%.
For `COc1cc(/C=N/NC(=O)c2ccncc2)ccc1OCC(=O)Nc1cccc([N+](=O)[O-])c1`, the Potency was inconclusive: 0.103 µM [activator, full curve, poor fit].
In the case of `CCN1CCN(C(CNC(=O)c2ccc3c(c2)OCO3)c2cccnc2)CC1` (configuration not stated), the lipid storage change, negative = inhibition is reported as inconclusive: 33.4%.
In the case of `Cc1ccc(N2CCN(C(=S)c3ccc(N(C)C)cc3)CC2)cc1`, the lipid storage change, negative = inhibition is reported as inconclusive: 3.94%.
In the case of `CCNc1nc(NCC)nc(SCC(C)=O)n1`, the lipid storage change, negative = inhibition is reported as inconclusive: -52.7%.
In the case of `CCOC(=O)c1c(C)n(CCNC(C)=O)c2ccc(OC)cc12`, the lipid storage change, negative = inhibition is reported as inconclusive: 126%.
For `COc1ccccc1NS(=O)(=O)c1ccc(O)c(C(=O)OCC(=O)N2CCc3ccccc32)c1`, the Potency was inconclusive: 16.4 µM [activator, partial curve].
For `CCOc1ccc(CCNC(=O)COC(=O)CCc2cc(OC)c(OC)c(OC)c2)cc1OCC`, the lipid storage change, negative = inhibition was inconclusive: -7.87%.
With `COc1ccc(/C(C)=N/OCC(=O)Nc2nc3ccccc3s2)cc1OC` the lipid storage change, negative = inhibition was inconclusive: 32.4%.
In the case of `CCN1CCN(S(=O)(=O)c2ccc3c(c2)OCCO3)CC1`, the lipid storage change, negative = inhibition is reported as inconclusive: 1.21%.
In the case of `O=C(CN(Cc1cccs1)C(=O)CSc1nnc(COc2ccccc2)o1)NC1CCCC1`, the Potency is reported as inconclusive: 8.2 µM [activator, partial curve].
In the case of `COc1ccc(CNC(=O)CCC(=O)Nc2ccc(Cl)cc2)cc1`, the lipid storage change, negative = inhibition is reported as inconclusive: 49%.
In the case of `CCOC(=O)C1=C(c2ccccc2)NC(SC)=C(C#N)C1c1cccnc1` (configuration not stated), the lipid storage change, negative = inhibition is reported as inconclusive: 21.3%.
With `C/C(CC1(O)C(=O)Nc2ccccc21)=N\O` (configuration not stated) the lipid storage change, negative = inhibition was inconclusive: 0.744%.
For `CCOC(=O)c1ccc(NC(=O)CSc2nnc(CNc3ccc(OC)cc3)n2C)cc1`, the lipid storage change, negative = inhibition was inconclusive: 18.8%.
With `Cc1ccc(C)c(S(=O)(=O)Nc2cccc(-n3cnnn3)c2)c1` the Potency was inconclusive: 20.6 µM [falling, partial curve, poor fit].
In the case of `Cc1cc(C)n(C(C)n2nc(C)cc2C)n1`, the lipid storage change, negative = inhibition is reported as inconclusive: 0.957%.
For `CCOc1ccc(CNC2CCCc3ccccc32)cc1` (configuration not stated), the Potency was inconclusive: 6.51 µM [rising, partial curve].
With `C=CCN(CC=C)C(=O)CN1C(=O)NC(c2ccccc2)(c2ccccc2)C1=O` the lipid storage change, negative = inhibition was inconclusive: -68.7%.
For `CCCn1c(C(C)Nc2nc(-c3ccc(C)cc3)cs2)nc2cc(Cl)c(N3CCCCC3)cc21` (configuration not stated), the lipid storage change, negative = inhibition was inconclusive: -6.25%.
With `COc1ccc(N2C(=O)CSC23C(=O)Nc2ccccc23)cc1OC` (configuration not stated) the lipid storage change, negative = inhibition was inconclusive: 20.5%.
With `Cc1cccc(OCc2nnc(SCC(=O)N3CC(=O)Nc4ccccc43)o2)c1` the lipid storage change, negative = inhibition was inconclusive: 0.646%.
With `O=C1C2CC=CCC2C(=O)N1Cc1ccccc1Cl` (configuration not stated) the lipid storage change, negative = inhibition was inconclusive: 195%.
With `Cc1[nH]n(-c2nc(-c3ccccc3)cc(=O)[nH]2)c(=O)c1CCO` the lipid storage change, negative = inhibition was inconclusive: -6.11%.
In the case of `CC1CC1c1ccc(/C=C(\C#N)C(=O)Nc2ccc(Cl)cc2)o1` (configuration not stated), the Potency is reported as inconclusive: 0.0731 µM [rising, full curve, poor fit].
In the case of `CC1CC(C)CN(CCCNC(=O)c2ccc3nc(N4CCCCC4)sc3c2)C1` (configuration not stated), the Potency is reported as inconclusive: 3.66 µM [falling, partial curve].
In the case of `O=C(CSc1nc2ccccc2c(=O)n1-c1ccccc1Cl)NCC1CCCO1` (configuration not stated), the lipid storage change, negative = inhibition is reported as inconclusive: 48.1%.
In the case of `O=C(O)CCC(=O)N1CCc2cc(S(=O)(=O)N3CC=C(c4ccccc4)CC3)ccc21`, the lipid storage change, negative = inhibition is reported as inconclusive: 7.61%.
For `C/C=C/C(=O)OCC(=O)Nc1cccc(S(=O)(=O)NC2=NCCCCC2)c1`, the lipid storage change, negative = inhibition was inconclusive: 3.11%.
For `COc1cccc2cc(C(=O)Nc3ccc(S(=O)(=O)NCC4CCCO4)cc3)c(=O)oc12` (configuration not stated), the lipid storage change, negative = inhibition was inconclusive: 14.3%.
For `COc1ccc(CCSc2nnc(C3CCCCC3)n2N)cc1`, the lipid storage change, negative = inhibition was inconclusive: -148%.
In the case of `CC(OC(=O)c1ccc2ncsc2c1)C(=O)N1CCCC1` (configuration not stated), the lipid storage change, negative = inhibition is reported as inconclusive: -47.3%.
With `CC(=O)c1ccc(NC(=O)NNS(=O)(=O)c2ccc([N+](=O)[O-])cc2)cc1` the lipid storage change, negative = inhibition was inconclusive: -1.9%.
In the case of `c1ccc(-c2ccc(-c3nc(-c4cccnc4)no3)cc2)cc1`, the Potency is reported as inconclusive: 0.206 µM [falling, full curve, poor fit].
For `CCCCCOC(=O)c1ccc(NC(=O)c2cccc(NC(=O)c3ccccc3C(=O)O)c2)cc1`, the lipid storage change, negative = inhibition was inconclusive: 30.4%.
With `O=C(CSc1ncnc2scc(-c3ccccc3)c12)Nc1ccc(C(=O)O)cc1` the Potency was inconclusive: 6.51 µM [cytotoxic, single point].
For `COC(=O)c1sc(N)c(C(=O)OC)c1COC(=O)C12CC3CC(CC(O)(C3)C1)C2`, the lipid storage change, negative = inhibition was “inactive”.
With `Cc1ccc(/C(O)=C2/C(=O)C(=O)N(c3ccccn3)C2c2ccc(F)cc2)cc1` (configuration not stated) the lipid storage change, negative = inhibition was inconclusive: 13.9%.
In the case of `COc1ccc(NC(=O)c2cc(OC)c(OC)c(OC)c2Br)cc1OC`, the lipid storage change, negative = inhibition is reported as inconclusive: 25.2%.
In the case of `CC(=O)N1CC(c2ccccc2)C(c2ccc(Cl)cc2)=N1` (configuration not stated), the lipid storage change, negative = inhibition is reported as inconclusive: 11.7%.
In the case of `CC1CCN(C(=O)c2ccc(SCc3ccccc3F)c([N+](=O)[O-])c2)CC1`, the Potency is reported as inconclusive: 14.6 µM [activator, partial curve, poor fit].
